Results reported in PubChem BioAssay AID1487 (National Center for Advancing Translational Sciences (NCATS), 2009).
The other results are listed elsewhere or left out. These are further read-outs of the screen, such as a control signal, another cell line or another target. No call is given for them. The list favours compounds with an active or inconclusive main result. Words in brackets tell the shape of the fitted curve; partial curves, single points and poor fits give uncertain potencies.

Assay: qHTS Assay for Modulators of Lamin A Splicing
Conditions: HeLa LMNA splicing GFP/RFP minigene ratio, 48 h
How it was run: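 Read-out is the ratio of GFP to DsRed2 object intensity, acquired by 488 nm laser-scanning cytometry on HeLa lamin A-EGFP minigene reporter cells. Compound incubation 48 hrs at 37 °C in Opti-MEM with 2% FBS; DMSO 0.5% final.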

[1] = measured here: RFP viability control channel
[2] = measured here: GFP splicing reporter channel

Structure (SMILES) | AC50 [1] | AC50 [2]
COc1cc(/C=C/C(=O)Nc2ccc(N3CCCCC3)c(S(=O)(=O)Nc3ccccc3Cl)c2)cc(OC)c1OC | 4.47 µM [rising, partial curve] | –
CCS(=O)(=O)Nc1ccc(Cc2ccc(NS(=O)(=O)CC)cc2)cc1 | 15.8 µM [rising, single point] | –
CC(c1ccco1)N(C(=O)c1ccccc1NS(=O)(=O)c1ccc(Cl)cc1)c1ccccn1 (stereo not given) | 31.6 µM [rising, single point] | –
CC(C)(C)NC[C@@H](O)c1ccc(O)c(CO)n1 | 0.501 µM [falling, partial curve] | 0.355 µM [falling, partial curve, poor fit]
Cc1ccc(-c2nc3n(n2)Cc2ccccc2-3)cc1 | 35.5 µM [rising, single point] | –
CC(Sc1nnc(-c2ccccc2)c(-c2ccccc2)n1)C(=O)Nc1ncc(Cl)cc1Cl (stereo not given) | 11.2 µM [rising, partial curve] | –
COc1ccc(N2C(=O)/C(=C\c3ccco3)N=C2SCC(=O)NC(C)(C)C)cc1Cl | 12.6 µM [rising, partial curve] | –
CCc1nnc(NC(=O)c2ccc(Cl)c(S(=O)(=O)N3CCc4ccccc43)c2)s1 | 7.08 µM [rising, full curve] | –
CC(C)CNC(=O)c1cnn2c(C(F)(F)F)cc(C(F)(F)F)nc12 | 14.1 µM [falling, single point] | 25.1 µM [falling, single point]
COc1cccc(-c2csc(N3CCN(C(=O)Nc4ccc(Cl)cc4)CC3)n2)c1 | 4.47 µM [falling, single point] | 0.2 µM [falling, partial curve]
COC(=O)c1c(N)sc(Cc2ccccc2)c1C | 4.47 µM [falling, partial curve, poor fit] | 5.62 µM [falling, partial curve, poor fit]
Oc1ccc(/C=N/NC(=S)NCCN2CCOCC2)c(O)c1 | 5.62 µM [falling, single point] | –
COc1ccc(NC(=O)Nc2nnc(C(C)C)s2)cc1 | 35.5 µM [rising, single point] | 35.5 µM [rising, single point]
COc1ccc(NC(=O)CN2CCN(Cc3ccc4c(c3)OCO4)CC2)cc1OC | 5.01 µM [falling, single point] | 3.55 µM [falling, single point]
Cc1cc(N2CCCC2)nc2ccc(NC(=S)NCCCN3CCC(C)CC3)cc12 | 2.51 µM [rising, partial curve, poor fit] | –
CCS(=O)(=O)N1N=C(c2cccc(NS(C)(=O)=O)c2)CC1c1ccc(C)cc1 (stereo not given) | 0.891 µM [rising, partial curve] | 1.12 µM [rising, partial curve]
CC(=O)N1CCN(CC(=O)Nc2cccc(S(=O)(=O)N3CCCCCC3)c2)CC1 | – | 0.00158 µM [falling, full curve, poor fit]
CC(C)CSc1nc(N2CCOCC2)c2c(c1C#N)CC(C)(C)SC2 | 35.5 µM [rising, single point] | –
CC1(C)CC(=O)C2=C(C1)Oc1ncn(CCCn3ccnc3)c(=N)c1C2c1ccccc1 (stereo not given) | 11.2 µM [rising, single point] | –
COc1ccc(-c2nnc(Nc3nc4c(OC)cccc4s3)o2)c(OC)c1 | 28.2 µM [falling, single point] | 22.4 µM [falling, single point]
CCn1c(C(=O)N2CCc3ccccc3C2)cc2oc3ccccc3c21 | 14.1 µM [rising, single point] | –
CN1c2ccccc2C(C)(C)[C@]12C=Cc1cc(O)ccc1O2 | 25.1 µM [rising, single point] | –
Cc1ccc(S(=O)(=O)N(C)Cc2ccc(C(=O)N/N=C/c3ccc(OC(F)F)cc3OC(F)F)cc2)cc1 | 7.94 µM [rising, partial curve] | 10 µM [rising, partial curve]
C=CCSC1=NC(=O)/C(=C/c2cccs2)S1 | – | 11.2 µM [rising, partial curve, poor fit]
O=C(COc1ccc2ccc(=O)oc2c1)OCc1ccccc1 | 0.794 µM [rising, full curve, poor fit] | 0.794 µM [rising, partial curve]
CCc1c(C)nc(Nc2nc(C)c3cc(OC)ccc3n2)[nH]c1=O | 3.16 µM [rising, full curve] | 1.41 µM [rising, full curve, poor fit]
CCOC(=O)c1c(C)[nH]c(CCC(=O)NCc2cc(Br)ccc2OC)c1C | 15.8 µM [falling, partial curve, poor fit] | 17.8 µM [falling, single point]
CCOC(=O)Cc1cc(=O)n2[nH]c(C)c(-c3ccc(Cl)cc3)c2n1 | 35.5 µM [falling, single point] | 17.8 µM [falling, partial curve]

Structure (SMILES) | AC50 [1] | AC50 [2]
CC(C)C(=O)N1CCN(c2ccccc2NC(=O)Cc2ccc(Cl)cc2)CC1 | 22.4 µM [rising, single point] | 12.6 µM [rising, single point]
COc1ccc(C(=O)NC(Nc2ccc(C)cc2)C(Cl)(Cl)Cl)cc1 (stereo not given) | 12.6 µM [rising, partial curve] | 8.91 µM [rising, partial curve, poor fit]
COC(=O)c1cc(NC(=O)c2cccc(F)c2)cc(C(=O)OC)c1 | 0.00355 µM [rising, full curve, poor fit] | –
c1ccc(OCCCCn2cnc3ccccc32)cc1 | 12.6 µM [rising, partial curve] | –
N#C/C(=N\Nc1ccc(Cl)cc1)C(=O)c1ccccc1 | 5.01 µM [rising, single point] | –
Cc1ccc(C(=O)N2CCC(Cc3ccccc3)CC2)cc1[N+](=O)[O-] | – | 35.5 µM [falling, single point]
CCc1cc2cc(C(=O)N3CCN(Cc4ccccc4)CC3)sc2s1 | 28.2 µM [rising, single point] | 12.6 µM [rising, partial curve]
COc1ccc(C(C)=O)cc1COc1ccccc1[N+](=O)[O-] | 35.5 µM [rising, single point] | –
Cc1nc2ccccc2n1S(=O)(=O)c1ccc(Br)cc1 | 31.6 µM [rising, single point] | –
CC(Nc1ncnc2nc[nH]c12)c1ccccc1 (stereo not given) | 35.5 µM [rising, single point] | 31.6 µM [rising, single point]
CCc1ccc(C(CNC(=O)c2ccc3c(=O)n(-c4ccccc4F)c(=S)[nH]c3c2)N(C)C)cc1 (stereo not given) | – | 35.5 µM [falling, single point]
Cc1cc(C)n(-c2nnc(C)n2/N=C/c2ccccc2OCc2ccccc2Cl)n1 | 12.6 µM [falling, partial curve] | 12.6 µM [falling, single point]
CCOC(=O)O[C@]1(C(=O)COC(=O)CC)CC[C@@H]2[C@@H]3CCC4=CC(=O)C=C[C@@]4(C)[C@H]3[C@H](O)C[C@]21C | 0.00447 µM [rising, full curve, poor fit] | –
Cc1cc(C)c2c(CC(=O)NCc3ccco3)coc2c1 | 17.8 µM [rising, partial curve, poor fit] | –
CC(C)(C)C(=O)Nc1ccc(C(=O)NNC(=O)c2ccccc2)cc1 | 1.26 µM [falling, single point] | –
COc1ccc(N2C(=NC(C)=O)SC3CS(=O)(=O)CC32)cc1OC (stereo not given) | 3.16 µM [rising, single point] | –
CCCCC(=Nc1ccccc1OC)C1=C(O)CC(c2ccccc2)CC1=O (stereo not given) | 31.6 µM [rising, single point] | –
Cc1c(Cl)cccc1N(Cc1ccc(C(=O)O)cc1)S(=O)(=O)c1ccccc1 | 35.5 µM [rising, single point] | –
CC1CCCC(NCC(=O)Nc2ccc(C(N)=O)cc2)C1C (stereo not given) | 4.47 µM [falling, full curve, poor fit] | –
CCOC(=O)C1(Cc2cccc(F)c2)CCN(C(=O)C2CCC2)CC1 | – | 0.00447 µM [falling, full curve, poor fit]
CC(C)Oc1cccc(C(=O)C2CCCN(Cc3ccc(Oc4ncccn4)cc3)C2)c1 (stereo not given) | 35.5 µM [falling, partial curve, poor fit] | 35.5 µM [falling, single point]
CC(C)(C)Nc1nc(Cl)nc(NC(C)(C)C)n1 | 0.0112 µM [rising, full curve, poor fit] | –
CC(C)NCC(O)c1cc(O)cc(O)c1 (stereo not given) | 5.62 µM [falling, single point] | –
Cc1ccc2nc(NC(=O)C3CCCN(S(=O)(=O)c4cccc5nsnc45)C3)sc2c1 (stereo not given) | 20 µM [rising, partial curve] | 14.1 µM [rising, partial curve, poor fit]
O=C(N/N=C/c1ccc(Sc2nc3ccccc3[nH]2)o1)c1ccncc1 | 22.4 µM [rising, single point] | –
Cc1cc2cc(CN(CC3CCCO3)C(=O)c3cnccn3)c(=O)[nH]c2cc1C (stereo not given) | 12.6 µM [rising, single point] | –
CCc1ccc(NC(=O)N2CCN(c3nnc(C)c4c(C)n(-c5ccc(Cl)cc5)nc34)CC2)cc1 | – | 35.5 µM [falling, partial curve, poor fit]

Reprinted at random: 4 records from the list, in no set order.
Structure (SMILES) | AC50 [1] | AC50 [2]
Cc1cc2cc(CN(CC3CCCO3)C(=O)c3cnccn3)c(=O)[nH]c2cc1C (stereo not given) | 12.6 µM [rising, single point] | –
CCOC(=O)C1(Cc2cccc(F)c2)CCN(C(=O)C2CCC2)CC1 | – | 0.00447 µM [falling, full curve, poor fit]
COC(=O)c1cc(NC(=O)c2cccc(F)c2)cc(C(=O)OC)c1 | 0.00355 µM [rising, full curve, poor fit] | –
Cc1ccc2nc(NC(=O)C3CCCN(S(=O)(=O)c4cccc5nsnc45)C3)sc2c1 (stereo not given) | 20 µM [rising, partial curve] | 14.1 µM [rising, partial curve, poor fit]
